From PubChem BioAssay AID493014 (National Center for Advancing Translational Sciences (NCATS), 2011)
Screen size: about 340,000 compounds; about 170 (0.05%) were called active. The inconclusive results got no clear call from the source; some entries with a clear call stand among them for comparison. Calls follow the shape of the dose curve; as a rule, active = well fitted inhibition curve with a large enough effect in the signal ratio, with a control signal flat (not every such curve was filed as active); inconclusive = small, poorly fitted or top-dose-only effect, or effect the other way, or a change in a side signal; inactive = flat fitted curve, though single readings scatter; the % refers to the signal ratio. Where the call is inconclusive, the potency comes from a doubtful curve fit.

Assay: qHTS Assay to Find Inhibitors of Chronic Active B-Cell Receptor Signaling;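 as to activity change, negative = inhibition: plate controls were basal doxycycline-induced cells for no effect and cells given 10 µM MG132 for full effect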
Conditions: ABC-DLBCL IkBa-CBG/CBR reporter, luminescence ratio (green luciferase fused to IkBa over red control in TMD8 lymphoma cells), 4 h; activity change, negative = inhibition: at 46.1 µM (top of the series) unless noted
How it was run: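 Concentration-response series (up to 46 uM) were applied to TMD8 dual-reporter cells for 4 h at 37C with doxycycline. Green/red ratio, after filter-overlap correction, defined %Activity; red signal alone was normalised to basal cells and zero luminescence.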
Potency is read from the fitted curve at half-maximal effect.

| SMILES | activity change, negative = inhibition | Potency |
| --- | --- | --- |
| O=C(c1ccco1)N1CCN(C/C=C/c2ccccc2)CC1 | inconclusive: 7.97% |  |
| O=C1ON=C(c2ccc(Cl)cc2)/C1=C/c1ccc(O)cc1 | inconclusive: 3.34% |  |
| CCOC(=O)CC(=O)CSc1nc2c(sc(=S)n2-c2ccccc2)c(=O)[nH]1 | inactive |  |
| Cc1ccccc1OCC(=O)Nn1c(COc2ccccc2)nc2ccccc2c1=O |  | inconclusive: 20.6 µM [falling, partial curve] |
| Cc1csc(NC(=O)COc2ccc3c(c2)CCC3)n1 | inconclusive: 5.05% |  |
| COCCN(C(=O)c1cccc(N2C(=O)CCC2=O)c1)c1nc(-c2ccc([N+](=O)[O-])cc2)cs1 | inconclusive: 4.76% |  |
| O=C1Nc2ccc(Br)cc2/C1=N/N=C/C1=C(N2CCOCC2)C(=C\c2ccccc2)/CC1 |  | inconclusive: 9.2 µM [rising, partial curve] |
| CN=C1c2c(-c3ccccc3)c3cc(OC)ccc3n2CCN1C |  | inconclusive: 16.4 µM [falling, partial curve] |
| Cc1cc2c([nH]c3ccccc32)c(C)n1 | inactive |  |
| O=C(N1CCOCC1)n1nnc2ccccc21 | inconclusive: 2.92% |  |
| CCCCNC(=O)CNC(=O)c1cccs1 | inactive |  |
| C=CCn1c(O)c(C2=c3ccccc3=NC2=O)sc1=Nc1ccc(O)cc1 | inconclusive: 8.71% |  |
| O=C(Nc1ccc([N+](=O)[O-])cn1)C1CC1 | inconclusive: 4.78% |  |
| Nc1nonc1-n1nnc(C(=O)N/N=C/c2ccc(F)cc2)c1-c1ccc2c(c1)OCO2 | inactive |  |
| Clc1ccc(C2Nc3cccc4cccc(c34)N2)cc1Cl | inconclusive: -25.3% |  |
| COc1ccc(Nc2nc3ccc(C)cc3n3cnnc23)cc1Cl | inconclusive: 6.07% |  |
| O=C(CCc1c[nH]c2ccccc12)NCCc1ccc(Cl)cc1 | inconclusive: -2.77% |  |
| CC(=O)Nc1ccc(-c2csc(Nc3cc(C)ccn3)n2)cc1 | inconclusive: -11.1% |  |
| CCc1cccc(NC(=O)C2CCCN(c3ncnc4c3nc3n4CCCCC3)C2)c1 (configuration not stated) | inconclusive: 1.3% |  |
| O=C(Nc1ccccc1C(=O)NCCN1CCOCC1)c1ccco1 | inconclusive: 10.7% |  |
| CN(C(=O)CSc1nc2[nH]ncc2c(=O)[nH]1)c1ccccc1 | inactive |  |
| Cc1nc(-c2ccccc2)nc2sc(C(=O)c3ccc(F)cc3)c(N)c12 | inconclusive: 6.65% |  |
| Oc1ccccc1CN1CCN(C(c2ccccc2)c2ccccc2)CC1 | inactive |  |
| CC(=O)COc1ccc2c3c(c(=O)oc2c1C)CCCCC3 | inconclusive: -1.49% |  |
| COc1ccccc1C(=O)N/N=C(\C)CC(=O)Nc1ccc2c(c1)OCCO2 |  | inconclusive: 10 µM [falling, partial curve, poor fit] |
| O=C(CSc1ccnc(=O)[nH]1)NCc1ccc(F)cc1 |  | inconclusive: 0.794 µM [falling, full curve, poor fit] |

| SMILES | activity change, negative = inhibition | Potency |
| --- | --- | --- |
| Cc1nn(C)c(C)c1NC(=O)/C(C#N)=C\N(C)C | inactive |  |
| C/C(=N\NC(=O)c1ccc(C)cc1C)c1ccc(-n2ccnc2)cc1 | inactive |  |
| O=C(O)c1ccccc1NS(=O)(=O)c1cccc(C(F)(F)F)c1 | inconclusive: 13.4% |  |
| COc1cccc(-c2cc3c(-n4cccc4)ncnc3o2)c1 | inconclusive: -3.37% |  |
| N#CC1=C(N)Oc2c(ccc3cccnc23)C1c1ccccc1 (configuration not stated) |  | inconclusive: 0.794 µM [rising, full curve, poor fit] |
| COc1ccc(OCCC(=O)OCc2c(C)noc2C)cc1 |  | inconclusive: 1.16 µM [falling, partial curve, poor fit] |
| O=C(Cc1coc(-c2ccc(F)cc2)n1)NCc1ccccc1 | inconclusive: 4.11% |  |
| CC(C)(C)c1ccc(OCCC(=O)OCC(=O)NC(=O)NC2CCCC2)cc1 | inactive |  |
| CN1CCN(C2=CC3=CC(=C(C#N)C#N)CCC3CC2)CC1 (configuration not stated) | inconclusive: 26.9% |  |
| O=C(CCc1nc2ccccc2[nH]1)Nc1ccccc1F |  | inconclusive: 12.6 µM [falling, partial curve, poor fit] |
| CC1(c2ccccc2)NC(=O)N(CC(=O)N2CC(=O)Nc3ccccc32)C1=O (configuration not stated) | inconclusive: 5.88% |  |
| CN(C(=O)Nc1ccc(Cl)cc1Cl)[C@H]1c2cc(Br)ccc2OC[C@H]1CO | inconclusive: 15.3% |  |
| Cc1ccc(C)n1NC(=O)c1ccc(O)cc1 |  | inconclusive: 16.4 µM [falling, partial curve] |
| O=C1NC(Cc2ccccc2)c2nc3ccc(Cl)cc3c(=O)n2-c2ccc(Cl)cc21 (configuration not stated) |  | inconclusive: 10.3 µM [falling, partial curve] |
| CCOP(=O)(OCC)C(NC(=O)Nc1ccc(Cl)c(Cl)c1)c1ccccc1 (configuration not stated) | inconclusive: 4.16% |  |
| O=C(NCc1ccc(Cl)cc1)c1cc(=O)nc2sc(-c3ccccc3)nn12 |  | inconclusive: 23.1 µM [falling, single point] |
| CCCCCNC(=O)c1ccc2c(=O)n(CC3CCCO3)c(=O)[nH]c2c1 (configuration not stated) | inconclusive: 7.18% |  |
| COc1cccc(NC(=O)C(NCC2CCCCC2)c2ccccc2)c1 (configuration not stated) | inconclusive: 23.9% |  |
| O=C(COc1ccccc1[N+](=O)[O-])Nc1ccc(NC(=O)c2cc3ccccc3o2)cc1 | inconclusive: 1.09% |  |
| CCOC(=O)c1cc(-c2ccc(OC)cc2OC)nn1-c1ccc(C(=O)O)cc1 |  | inconclusive: 25.1 µM [falling, partial curve] |
| Cc1ccccc1NC(=O)CSc1cn[nH]n1 | inactive |  |
| COC(=O)c1c(NC(=O)CCl)sc(C(=O)N2CCOCC2)c1C |  | inconclusive: 20 µM [falling, partial curve] |
| Cc1cccc(-n2c(O)c(C=Nc3ccccc3)c3ccccc3c2=O)n1 | inconclusive: 3.34% |  |
| Cc1ccc(S(=O)(=O)Nn2c(O)c(C=C3N=c4ccccc4=N3)sc2=S)cc1 |  | inconclusive: 14.1 µM [falling, partial curve, poor fit] |
| O=[N+]([O-])c1ccc(NC2CCCC2)cc1 | inconclusive: 4.75% |  |
| COC(=O)[C@@]1(Cc2ccccc2)[C@H]2C(=O)N(C)C(=O)[C@H]2[C@H]2CN=C(SCc3ccc(C#N)cc3)N21 | inactive |  |
